Test results taken from patent publication US20160046678A1 (ZYNGENIA, published 2016).
Results are given in words; binding and its absence hold for the method and conditions named. Some binding calls cover weakened binding; strength is not graded here.

Chains of the proteins cited; added tags and fusions are not shown. Residues count along the entry.
UniProt P08069, residues 31-932: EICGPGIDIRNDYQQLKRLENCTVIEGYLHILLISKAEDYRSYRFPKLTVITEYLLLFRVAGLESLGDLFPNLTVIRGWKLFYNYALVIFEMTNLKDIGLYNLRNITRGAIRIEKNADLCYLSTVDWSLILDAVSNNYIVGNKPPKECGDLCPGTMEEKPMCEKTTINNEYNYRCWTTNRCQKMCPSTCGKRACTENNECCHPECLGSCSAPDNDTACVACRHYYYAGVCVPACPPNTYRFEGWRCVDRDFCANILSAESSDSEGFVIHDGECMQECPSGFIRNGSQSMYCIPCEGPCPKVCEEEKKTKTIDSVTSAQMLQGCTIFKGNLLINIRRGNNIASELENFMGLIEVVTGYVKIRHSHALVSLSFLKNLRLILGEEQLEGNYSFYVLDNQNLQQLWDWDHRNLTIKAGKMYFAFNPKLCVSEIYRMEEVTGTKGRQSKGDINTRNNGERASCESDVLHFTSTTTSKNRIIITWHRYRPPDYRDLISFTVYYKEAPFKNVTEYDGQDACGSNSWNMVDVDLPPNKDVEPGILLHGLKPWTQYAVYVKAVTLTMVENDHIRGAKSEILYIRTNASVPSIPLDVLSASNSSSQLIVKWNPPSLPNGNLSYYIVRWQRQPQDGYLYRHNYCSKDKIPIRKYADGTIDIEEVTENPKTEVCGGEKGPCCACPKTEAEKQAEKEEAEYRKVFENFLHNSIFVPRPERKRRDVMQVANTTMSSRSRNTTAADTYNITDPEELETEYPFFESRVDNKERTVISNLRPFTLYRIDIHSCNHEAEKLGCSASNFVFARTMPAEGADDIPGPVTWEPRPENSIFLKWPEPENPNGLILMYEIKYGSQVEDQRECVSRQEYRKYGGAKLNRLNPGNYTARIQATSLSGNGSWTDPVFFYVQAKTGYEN

B1: IGF541 (peptide)
peptide: FALVPSLCLEFNELCF
B2: IGF539 (peptide)
peptide: DPSVPALCHEFPELCF
B3: IGF538 (peptide)
peptide: YVIPHPLCLEFSELCF
B4: IGF545 (peptide)
peptide: TMLEIPQLCKEFPELCFHDTTVW
B5: IGF543 (peptide)
peptide: LCLEFRELCFDLSEPH
B6: IGF544 (peptide)
peptide: MRLESLELCKEFPELCFSTDLTL
B7: IGF542 (peptide)
peptide: MSSNSIKLCKEFPELCFHIHGKD
B8: IGF537 (peptide)
peptide: LSSYMLLCMEFSELCF
B9: IGF536 (peptide)
peptide: TSSALKLCQEFPELCF
B10: IGF535 (peptide)
peptide: LCSEFIELCFDQVPLR
B11: IGF540 (peptide)
peptide: QGWTHPLCLEFQELCF
B12: ANG952 (peptide)
peptide: SVLALEDCYFYPNPHHCY
B13: ANG947 (peptide)
peptide: YPMNSHDCYFYPNPPQCY
B14: ANG937 (peptide)
peptide: FYQSWVDCYFYPNPPHCS
B15: ANG929 (peptide)
peptide: ESFQNMDCYFYPNPPYCY
B16: ANG942 (peptide)
peptide: GVYSFDQCYVFPNPPDCY
B17: ANG925 (peptide)
peptide: SPVDCYFYPNPPHCYDWD
B18: ANG932 (peptide)
peptide: SWPNHMECYFFPNPPHCY
B19: ANG924 (peptide)
peptide: FSHLEQDCYFYPNPPHCY
B20: ANG951 (peptide)
peptide: GSALLSDCYFYPNPPHCY
B21: ANG946 (peptide)
peptide: DVQIEFDCYFYPNPPYCY
B22: ANG934 (peptide)
peptide: KSVGNTDCYFFPNPPHCY
B23: ANG919 (peptide)
peptide: ECYFYPNPPHCYVLKQQI
B24: ANG935 (peptide)
peptide: TIYDCYIYPNPRHCYKLN
B25: ANG949 (peptide)
peptide: LRLDLEECYWYPNPPYCK
B26: ANG917 (peptide)
peptide: LSILYPSCYFYPNPEHCQ
B27: ANG916 (peptide)
peptide: APHILQDCYFYPNPRHCY
B28: ANG918 (peptide)
peptide: ECYFYPNPPECYNVDDQA
B29: ANG955 (peptide)
peptide: YGTECYFYPNPAHCYSNE
B30: ANG923 (peptide)
peptide: FYYDCFFYPNPPNCYNSF
B31: ANG914 (peptide)
peptide: THKDCYFFPNPPHCYTKT
B32: ANG939 (peptide)
peptide: YALDLGGCYWFPNPPHCY
B33: ANG915 (peptide)
peptide: PLKDCYFYPNPLHCYLVS
B34: ANG913 (peptide)
peptide: RLVDCYYYPNPLHCYDRS
B35: ANG944 (peptide)
peptide: RALDCYFYPNPQHCYQGI
B36: ANG948 (peptide)
peptide: SPAHCSYCPFPPNSCFCY
B37: ANG912 (peptide)
peptide: KWARGMECFFYPNPPDCY
B38: ANG956 (peptide)
peptide: HWYFCPNPPNPPQCHLKW
B39: ANG945 (peptide)
peptide: SPHECYFYPNPPHCYADR
B40: ANG940 (peptide)
peptide: SIFLSLDCYFFPNPSNSL
B41: ANG930 (peptide)
peptide: PRKSFHDCYFYPNPPHCY
B42: ANG936 (peptide)
peptide: ECYFYPNPPHCYHALTSK
B43: ANG926 (peptide)
peptide: PYQLMTDCYFFPNPPHCY
B44: ANG920 (peptide)
peptide: ISTRNTDCYFYPNPPHCY
B45: ANG954 (peptide)
peptide: PTAVLMECYFYPNPDYCY
B46: ANG943 (peptide)
peptide: VVLHYGDCYYYPNPPYCY

These binders were tested against IGF1R (UniProt P08069) (assay: MRD identification, Example 48).

binding, binds:
B1
B2
B3
B4
B5
B6
B7
B8
B9
B10
B11

These binders were tested against T1, Angiopoietin-2 (Ang2) (human, UniProt O15123 19-496, biotin label in Examples 22-24) (assay: Example 48, method not detailed).
T1 construct: also called rhAng2; recombinant Ang2
T1 sequence (looked up): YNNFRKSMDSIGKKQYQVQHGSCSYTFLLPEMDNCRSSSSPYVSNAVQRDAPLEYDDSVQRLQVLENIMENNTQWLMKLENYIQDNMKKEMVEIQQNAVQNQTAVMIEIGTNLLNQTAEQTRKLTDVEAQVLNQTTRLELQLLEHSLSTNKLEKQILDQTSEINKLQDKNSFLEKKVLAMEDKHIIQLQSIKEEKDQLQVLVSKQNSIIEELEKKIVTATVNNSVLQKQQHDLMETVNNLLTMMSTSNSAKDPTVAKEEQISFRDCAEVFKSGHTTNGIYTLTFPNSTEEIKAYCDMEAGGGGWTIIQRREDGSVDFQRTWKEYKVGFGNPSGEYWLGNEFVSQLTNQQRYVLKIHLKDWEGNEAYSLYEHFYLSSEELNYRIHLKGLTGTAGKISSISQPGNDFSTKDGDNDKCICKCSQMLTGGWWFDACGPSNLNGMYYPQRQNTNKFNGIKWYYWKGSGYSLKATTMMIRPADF

binding, binds:
B12
B13
B14
B15
B16
B17
B18
B19
B20
B21
B22
B23
B24
B25
B26
B27
B28
B29
B30
B31
B32
B33
B34
B35
B36
B37
B38
B39
B40
B41
B42
B43
B44
B45
B46
